Reference: the supplement of paper PMC7661543
± gives the standard deviation of the averaged measurements. The effect of the compound repeats well; differences between the knockouts mostly do not.

System: HCC-38
Assay: relative cell number vs DMSO control (72 h) (% of DMSO); higher = less growth inhibition (more cells)
Description: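 QMAP-Seq: a pool of 5 breast cancer cell lines (ZR-75-1, SKBR3, HCC-38, MDA-MB-231, BT-20), each carrying 12 doxycycline-inducible Cas9 sgRNA perturbations (11 knockouts plus non-targeting sgNT), was treated with compounds for 72 h at four 10-fold doses (10 nM-10 uM or 1 nM-1 uM range). Barcodes were amplified and sequenced, and cell number was interpolated from 293T spike-in standard curves. The result is expressed as % of the median of DMSO wells. Two biological replicates.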

[1] = sgRNA knockout: sgATF3, 1000 nM
[2] = sgRNA knockout: sgATF3, 10000 nM
[3] = sgRNA knockout: sgATF4, 1000 nM
[4] = sgRNA knockout: sgATF4, 10000 nM
[5] = sgRNA knockout: sgATF6, 1000 nM
[6] = sgRNA knockout: sgATF6, 10000 nM
[7] = sgRNA knockout: sgATG7, 1000 nM
[8] = sgRNA knockout: sgATG7, 10000 nM
[9] = sgRNA knockout: sgERN1, 1000 nM
[10] = sgRNA knockout: sgERN1, 10000 nM
[11] = sgRNA knockout: sgHSF1, 1000 nM
[12] = sgRNA knockout: sgHSF1, 10000 nM
[13] = sgRNA knockout: sgHSF2, 1000 nM
[14] = sgRNA knockout: sgHSF2, 10000 nM
[15] = sgRNA knockout: sgKEAP1, 100 nM
[16] = sgRNA knockout: sgKEAP1, 1000 nM
[17] = sgRNA knockout: sgKEAP1, 10000 nM
[18] = sgRNA knockout: sgNFE2L2, 10 nM
[19] = sgRNA knockout: sgNFE2L2, 100 nM
[20] = sgRNA knockout: sgNFE2L2, 1000 nM
[21] = sgRNA knockout: sgNFE2L2, 10000 nM
[22] = sgRNA knockout: sgSLC35F2, 10 nM
[23] = sgRNA knockout: sgSLC35F2, 100 nM
[24] = sgRNA knockout: sgSLC35F2, 1000 nM
[25] = sgRNA knockout: sgSLC35F2, 10000 nM
[26] = sgRNA knockout: sgXBP1, 1000 nM
[27] = sgRNA knockout: sgXBP1, 10000 nM

CC(C)CC(=O)Nc1n[nH]c2c1CN(C(=O)C1CCN(C)CC1)C2(C)C
relative cell number (sgRNA knockout: sgATF3, 10 nM): 109 ± 13 | relative cell number (sgRNA knockout: sgATF3, 100 nM): 78 ± 2.6 | relative cell number [1]: 44 ± 6 | relative cell number [2]: 21.8 ± 0.97 | relative cell number (sgRNA knockout: sgATF4, 10 nM): 115.7 ± 0.9 | relative cell number (sgRNA knockout: sgATF4, 100 nM): 81.2 ± 6.8 | relative cell number [3]: 40.5 ± 7.3 | relative cell number [4]: 20.2 ± 3.4 | relative cell number (sgRNA knockout: sgATF6, 10 nM): 111 ± 28 | relative cell number (sgRNA knockout: sgATF6, 100 nM): 82.6 ± 21 | relative cell number [5]: 47.5 ± 3.5 | relative cell number [6]: 19.7 ± 2.2 | relative cell number (sgRNA knockout: sgATG7, 10 nM): 112 ± 22 | relative cell number (sgRNA knockout: sgATG7, 100 nM): 68.9 ± 2.1 | relative cell number [7]: 42 ± 7.8 | relative cell number [8]: 16.2 ± 0.2 | relative cell number (sgRNA knockout: sgERN1, 10 nM): 129 ± 15 | relative cell number (sgRNA knockout: sgERN1, 100 nM): 76 ± 13 | relative cell number [9]: 43.1 ± 6.7 | relative cell number [10]: 18.8 ± 1 | relative cell number (sgRNA knockout: sgHSF1, 10 nM): 119 ± 53 | relative cell number (sgRNA knockout: sgHSF1, 100 nM): 94.3 ± 1.9 | relative cell number [11]: 40.7 ± 6.7 | relative cell number [12]: 22.2 ± 7 | relative cell number (sgRNA knockout: sgHSF2, 10 nM): 130 ± 34 | relative cell number (sgRNA knockout: sgHSF2, 100 nM): 87.5 ± 8.3 | relative cell number [13]: 44.5 ± 2.5 | relative cell number [14]: 20.2 ± 0.54 | relative cell number (sgRNA knockout: sgKEAP1, 10 nM): 134 ± 52 | relative cell number [15]: 93.2 ± 10 | relative cell number [16]: 53.1 ± 8.8 | relative cell number [17]: 26.3 ± 3.4 | relative cell number [18]: 110 ± 12 | relative cell number [19]: 77.99 ± 0.59 | relative cell number [20]: 42.3 ± 8.5 | relative cell number [21]: 22.2 ± 0.27 | relative cell number [22]: 113 ± 23 | relative cell number [23]: 76.7 ± 7.5 | relative cell number [24]: 42 ± 2 | relative cell number [25]: 20.3 ± 3.3 | relative cell number (sgRNA knockout: sgXBP1, 10 nM): 113 ± 11 | relative cell number (sgRNA knockout: sgXBP1, 100 nM): 84.2 ± 2.1 | relative cell number [26]: 45.8 ± 8.9 | relative cell number [27]: 22.1 ± 0.85

Cc1c(Cn2c(C)nc3c(C(=O)O)cc(N4CCOCC4)cc32)cccc1C(F)(F)F
relative cell number (sgRNA knockout: sgATF3, 10 nM): 106.8 ± 0.3 | relative cell number (sgRNA knockout: sgATF3, 100 nM): 88.8 ± 4.4 | relative cell number [1]: 106 ± 16 | relative cell number [2]: 117 ± 4.8 | relative cell number (sgRNA knockout: sgATF4, 10 nM): 99.4 ± 5.7 | relative cell number (sgRNA knockout: sgATF4, 100 nM): 81.8 ± 0.88 | relative cell number [3]: 115 ± 21 | relative cell number [4]: 96.8 ± 2 | relative cell number (sgRNA knockout: sgATF6, 10 nM): 107 ± 9.1 | relative cell number (sgRNA knockout: sgATF6, 100 nM): 113 ± 12 | relative cell number [5]: 98.4 ± 13 | relative cell number [6]: 88.5 ± 5.3 | relative cell number (sgRNA knockout: sgATG7, 10 nM): 102 ± 6.3 | relative cell number (sgRNA knockout: sgATG7, 100 nM): 86 ± 8 | relative cell number [7]: 111 ± 10 | relative cell number [8]: 101 ± 11 | relative cell number (sgRNA knockout: sgERN1, 10 nM): 93.2 ± 1.7 | relative cell number (sgRNA knockout: sgERN1, 100 nM): 90.6 ± 2.6 | relative cell number [9]: 108 ± 14 | relative cell number [10]: 108 ± 6.6 | relative cell number (sgRNA knockout: sgHSF1, 10 nM): 111 ± 8.1 | relative cell number (sgRNA knockout: sgHSF1, 100 nM): 130 ± 15 | relative cell number [11]: 111 ± 0.33 | relative cell number [12]: 111.5 ± 0.33 | relative cell number (sgRNA knockout: sgHSF2, 10 nM): 116 ± 8.1 | relative cell number (sgRNA knockout: sgHSF2, 100 nM): 94.53 ± 0.44 | relative cell number [13]: 119 ± 22 | relative cell number [14]: 113 ± 11 | relative cell number (sgRNA knockout: sgKEAP1, 10 nM): 119 ± 7.5 | relative cell number [15]: 129 ± 16 | relative cell number [16]: 103 ± 3.3 | relative cell number [17]: 125 ± 5 | relative cell number [18]: 110 ± 6.9 | relative cell number [19]: 72.9 ± 2.4 | relative cell number [20]: 112 ± 36 | relative cell number [21]: 103 ± 3.3 | relative cell number [22]: 103 ± 4.4 | relative cell number [23]: 91.5 ± 2.7 | relative cell number [24]: 105 ± 6.6 | relative cell number [25]: 106 ± 1.3 | relative cell number (sgRNA knockout: sgXBP1, 10 nM): 116 ± 9.2 | relative cell number (sgRNA knockout: sgXBP1, 100 nM): 83.9 ± 1.8 | relative cell number [26]: 119 ± 28 | relative cell number [27]: 111 ± 9.6

Cc1cc(N2CCOCC2)cc2[nH]c(-c3c(NC[C@@H](O)c4cccc(Cl)c4)cc[nH]c3=O)nc12
relative cell number (sgRNA knockout: sgATF3, 10 nM): 94.5 ± 4 | relative cell number (sgRNA knockout: sgATF3, 100 nM): 86.5 ± 15 | relative cell number [1]: 89.4 ± 5.4 | relative cell number [2]: 33.1 ± 2.6 | relative cell number (sgRNA knockout: sgATF4, 10 nM): 94.96 ± 0.87 | relative cell number (sgRNA knockout: sgATF4, 100 nM): 79.8 ± 6.5 | relative cell number [3]: 95.5 ± 7.1 | relative cell number [4]: 32.8 ± 2.4 | relative cell number (sgRNA knockout: sgATF6, 10 nM): 103 ± 28 | relative cell number (sgRNA knockout: sgATF6, 100 nM): 89.3 ± 2 | relative cell number [5]: 106 ± 20 | relative cell number [6]: 35.7 ± 4.2 | relative cell number (sgRNA knockout: sgATG7, 10 nM): 88.8 ± 6.4 | relative cell number (sgRNA knockout: sgATG7, 100 nM): 90.2 ± 16 | relative cell number [7]: 85.4 ± 5.5 | relative cell number [8]: 30.9 ± 3.1 | relative cell number (sgRNA knockout: sgERN1, 10 nM): 96 ± 1.3 | relative cell number (sgRNA knockout: sgERN1, 100 nM): 82.7 ± 5.8 | relative cell number [9]: 90.5 ± 1.4 | relative cell number [10]: 32.4 ± 3 | relative cell number (sgRNA knockout: sgHSF1, 10 nM): 101 ± 18 | relative cell number (sgRNA knockout: sgHSF1, 100 nM): 90.7 ± 2.1 | relative cell number [11]: 98.5 ± 15 | relative cell number [12]: 48.1 ± 13 | relative cell number (sgRNA knockout: sgHSF2, 10 nM): 96 ± 19 | relative cell number (sgRNA knockout: sgHSF2, 100 nM): 86.7 ± 8.2 | relative cell number [13]: 92.2 ± 9.6 | relative cell number [14]: 36.4 ± 7 | relative cell number (sgRNA knockout: sgKEAP1, 10 nM): 118.2 ± 0.48 | relative cell number [15]: 90.3 ± 21 | relative cell number [16]: 122 ± 7.7 | relative cell number [17]: 36.8 ± 5 | relative cell number [18]: 86.8 ± 7 | relative cell number [19]: 75.7 ± 12 | relative cell number [20]: 84 ± 6.9 | relative cell number [21]: 31.8 ± 5.3 | relative cell number [22]: 94.2 ± 8.2 | relative cell number [23]: 82.8 ± 7 | relative cell number [24]: 89.2 ± 11 | relative cell number [25]: 35.6 ± 2.9 | relative cell number (sgRNA knockout: sgXBP1, 10 nM): 90.4 ± 7.2 | relative cell number (sgRNA knockout: sgXBP1, 100 nM): 84 ± 15 | relative cell number [26]: 87.8 ± 9.4 | relative cell number [27]: 33.19 ± 0.074
